Data taken from patent publication US10688099B2, “Methods for modulating the amount of RNA transcripts” (PTC Therapeutics, Inc., priority 2013, dated 2020).
Several values for one entry are separate records, joined by “and”; a condition that tells them apart may be missing. Equal entries are not always repeated. This continues a long series; more values of the same kind are listed elsewhere.

Test system: RNA isoforms in PNN 1-46 SMA type I patient-derived fibroblasts
Experiment: RNA Abundance Modulation (RNA isoform abundance, iFPM, HiSeq RNA sequencing)
Assay type: cell-based, human
Settings: 3 μM
Method: Cells from a cell line of interest are cultured in conditions sufficient to yield the number of cells capable of generating enough RNA for subsequent sequencing steps. Cells from the tested cell line are contacted with a compound described herein.
To culture said cells, they are seeded, at appropriate concentrations in a volume of media in a cell culture container and incubated for 4, 5, 6, 7, 8, 9, 10, or more hours. A concentrated solution of compound in a vehicle (e.g., DMSO) is then added in sufficient volume to result in the intended final concentration of the compound, for example 100 nM, 500 nM, 1 μM, 5 μM, 10 μM, 15 μM, 20 μM, or more. The cells may also be treated with vehicle alone, as a control. A number of replicates of each concentration or control may be made (e.g., 2 replicates). The cells are then incubated at a constant temperature appropriate for cell culture of the particular cell line (e.g., 37° C.) for 6, 12, 18, 24, 48, or more hours. After incubation, the growth medium is removed and the cells are washed with the appropriate buffer (e.g., PBS). Cells are then removed from adherence to the cell culture container by treatment with a solution containing trypsin, and the trypsin subsequently quenched with the appropriate volume of buffer (e.g., DMEM-FBS). The cells are then pelleted with gentle centrifugation (e.g., ≤90×g centrifugal force) and resuspended in a buffer to lyse the cells for extraction of RNA. The cell lysates may then be frozen (e.g., at −80° C.) or, alternately, may immediately be used in a procedure to purify the RNA (e.g. by use of the RNEASY PLUS® minikit). The RNA from cell lysates is eluted in the appropriate volume of buffer (e.g., RNEASE-FREE H2O®). The resulting purified RNA may then be sequenced (e.g., using RNASeq) or analyzed using a human exon array (e.g., by GENECHIP® human exon array) to determine changes in the RNA levels in those cells treated with compound compared to those cells treated only with DMSO. The purified RNA may also be quantified by other methods known in the art.
Using the RNA data obtained from sequencing, exon array, or other methods, a statistical analysis can reveal changes in the RNA levels of compound-treated compared with control. For example, t-test p-values may be calculated for the data obtained through sequencing and exon array methods in order to compare compound-treated cells to those treated with the DMSO control. […] Analysis of the sequencing and exon array data may then also yield predictions about the cause of the aberrant amount of an RNA transcript in the cells (e.g., perturbation of RNA splicing, RNA transcription, or RNA stability). These predictions may be further confirmed by methods known in the art. For example, RT-PCR and RT-qPCR may be used to confirm the change in amount of RNA transcripts for one or more particular transcripts of interest.
Following the methods described above in Example 1, PNN 1-46 SMA type I patient-derived fibroblasts were treated with 300 nM or 3 μM Compounds 774 and 808 in 0.5% DMSO.
700,000 cells were seeded in 10 mL of medium (DMEM plus 10% FBS) in a T-75 flask. Cells were allowed to attach for at least 4 hrs, after which 50 μL of a 200× compound solution (100% DMSO) was added to each well, and the plate was incubated at 37° C. for 24 hrs.
At the end of the incubation period, the supernatant was removed and the cells where washed with PBS. TrypLE (Invitrogen) express solution was added (e.g. 1.5 mL per one T75 flask). The flasks were incubated for 3 to 5 min at 37° C. The trypsin was then quenched, e.g., by adding 10 mL DMEM-FBS.
Next, the cells were pelleted using gentle centrifugation without exceeding 90×g centrifugal force. The supernatant was removed and the cell pellet was re-suspended in 600 μL RLT buffer (the RLT buffer was supplemented with beta-mercaptoethanol according to the RNeasy protocol manual) by pipetting up and down until the pellet was completely dissolved […]

CCc1nc(C)cn2nc(-c3cc(=O)n4cc(C5CCN(C)CC5)cc(C)c4n3)cc12 [Compound 774]
L2FC (x + 1) (HMGCR AY429542): 0.000
L2abs (Cpd-DMSO) (HMGCR AY429542): 0
abs (Cpd-DMSO) (HMGCR AY429542): 0 iFPM
amp FC (x + 1) (HMGCR AY429542): 1.00
ave Cpd (HMGCR AY429542): 0 iFPM
FC (x + 1) (HMGCR NM_000859): 2.3153
L2FC (x + 1) (HMGCR NM_000859): 1.211
L2abs (Cpd-DMSO) (HMGCR NM_000859): 11.24
abs (Cpd-DMSO) (HMGCR NM_000859): 2421 iFPM
amp FC (x + 1) (HMGCR NM_000859): 2.32
ave Cpd (HMGCR NM_000859): 4261 iFPM
FC (x + 1) (HMGCR NM_001130996): 1.1071
L2FC (x + 1) (HMGCR NM_001130996): 0.147
L2abs (Cpd-DMSO) (HMGCR NM_001130996): 2.80
abs (Cpd-DMSO) (HMGCR NM_001130996): 7 iFPM
amp FC (x + 1) (HMGCR NM_001130996): 1.11
ave Cpd (HMGCR NM_001130996): 71 iFPM
FC (x + 1) (HMGCS1 AK025736): 2.6409
L2FC (x + 1) (HMGCS1 AK025736): 1.401
L2abs (Cpd-DMSO) (HMGCS1 AK025736): 3.75
abs (Cpd-DMSO) (HMGCS1 AK025736): 13 iFPM
amp FC (x + 1) (HMGCS1 AK025736): 2.64
ave Cpd (HMGCS1 AK025736): 21 iFPM
FC (x + 1) (HMGCS1 NM_002130): 3.1962
L2FC (x + 1) (HMGCS1 NM_002130): 1.676
L2abs (Cpd-DMSO) (HMGCS1 NM_002130): 9.74
abs (Cpd-DMSO) (HMGCS1 NM_002130): 858 iFPM
amp FC (x + 1) (HMGCS1 NM_002130): 3.20
ave Cpd (HMGCS1 NM_002130): 1247 iFPM
FC (x + 1) (HMGCS1 NM_001098272): 3.2671
L2FC (x + 1) (HMGCS1 NM_001098272): 1.708
L2abs (Cpd-DMSO) (HMGCS1 NM_001098272): 10.02
abs (Cpd-DMSO) (HMGCS1 NM_001098272): 1035 iFPM
amp FC (x + 1) (HMGCS1 NM_001098272): 3.27
ave Cpd (HMGCS1 NM_001098272): 1491 iFPM
amp FC (x + 1) (UCHL5 AK316064): 1.39
amp FC (x + 1) (UCHL5 BC015381): 1.22
FC (x + 1) (UCHL5 NM_015984): 0.8637
L2FC (x + 1) (UCHL5 NM_015984): −0.211
L2abs (Cpd-DMSO) (UCHL5 NM_015984): 6.12
abs (Cpd-DMSO) (UCHL5 NM_015984): 69 iFPM
amp FC (x + 1) (UCHL5 NM_015984): 1.16
ave Cpd (UCHL5 NM_015984): 439 iFPM
FC (x + 1) (UCHL5 NM_001199261): 2.6069
L2FC (x + 1) (UCHL5 NM_001199261): 1.382
L2abs (Cpd-DMSO) (UCHL5 NM_001199261): 7.64
abs (Cpd-DMSO) (UCHL5 NM_001199261): 200 iFPM
amp FC (x + 1) (UCHL5 NM_001199261): 2.61
ave Cpd (UCHL5 NM_001199261): 324 iFPM
FC (x + 1) (UCHL5 NM_001199262): 1.1349
L2FC (x + 1) (UCHL5 NM_001199262): 0.183
L2abs (Cpd-DMSO) (UCHL5 NM_001199262): 4.00
abs (Cpd-DMSO) (UCHL5 NM_001199262): 16 iFPM
amp FC (x + 1) (UCHL5 NM_001199262): 1.13
ave Cpd (UCHL5 NM_001199262): 134 iFPM
FC (x + 1) (UCHL5 NM_001199263): 0.8534
L2FC (x + 1) (UCHL5 NM_001199263): −0.229
L2abs (Cpd-DMSO) (UCHL5 NM_001199263): 4.98
abs (Cpd-DMSO) (UCHL5 NM_001199263): 31 iFPM
amp FC (x + 1) (UCHL5 NM_001199263): 1.17
ave Cpd (UCHL5 NM_001199263): 182 iFPM
FC (x + 1) (UCHL5 NR_037607): 1.0924
L2FC (x + 1) (UCHL5 NR_037607): 0.127
L2abs (Cpd-DMSO) (UCHL5 NR_037607): 1.06
abs (Cpd-DMSO) (UCHL5 NR_037607): 2 iFPM
amp FC (x + 1) (UCHL5 NR_037607): 1.09
ave Cpd (UCHL5 NR_037607): 24 iFPM
FC (x + 1) (UHRF1BP1L BX647380): 0.1346
L2FC (x + 1) (UHRF1BP1L BX647380): −2.894
L2abs (Cpd-DMSO) (UHRF1BP1L BX647380): 7.07
abs (Cpd-DMSO) (UHRF1BP1L BX647380): 134 iFPM
amp FC (x + 1) (UHRF1BP1L BX647380): 7.43
ave Cpd (UHRF1BP1L BX647380): 20 iFPM
FC (x + 1) (UHRF1BP1L NM_015054): 0.9853
L2FC (x + 1) (UHRF1BP1L NM_015054): −0.021
L2abs (Cpd-DMSO) (UHRF1BP1L NM_015054): 4.55
abs (Cpd-DMSO) (UHRF1BP1L NM_015054): 23 iFPM
amp FC (x + 1) (UHRF1BP1L NM_015054): 1.01
ave Cpd (UHRF1BP1L NM_015054): 1565 iFPM
FC (x + 1) (UHRF1BP1L NM_001006947): 0.4169
L2FC (x + 1) (UHRF1BP1L NM_001006947): −1.262
L2abs (Cpd-DMSO) (UHRF1BP1L NM_001006947): 4.65
abs (Cpd-DMSO) (UHRF1BP1L NM_001006947): 25 iFPM
amp FC (x + 1) (UHRF1BP1L NM_001006947): 2.40
ave Cpd (UHRF1BP1L NM_001006947): 17 iFPM
FC (x + 1) (VANGL1 NM_138959): 0.7825
L2FC (x + 1) (VANGL1 NM_138959): −0.354
L2abs (Cpd-DMSO) (VANGL1 NM_138959): 9.31
abs (Cpd-DMSO) (VANGL1 NM_138959): 634 iFPM
amp FC (x + 1) (VANGL1 NM_138959): 1.28
ave Cpd (VANGL1 NM_138959): 2279 iFPM
FC (x + 1) (VANGL1 NM_001172412): 0.0142
L2FC (x + 1) (VANGL1 NM_001172412): −6.143
L2abs (Cpd-DMSO) (VANGL1 NM_001172412): 6.12
abs (Cpd-DMSO) (VANGL1 NM_001172412): 70 iFPM
amp FC (x + 1) (VANGL1 NM_001172412): 70.66
ave Cpd (VANGL1 NM_001172412): 0 iFPM
FC (x + 1) (VARS2 AB067472): 0.1508
L2FC (x + 1) (VARS2 AB067472): −2.729
L2abs (Cpd-DMSO) (VARS2 AB067472): 2.49
abs (Cpd-DMSO) (VARS2 AB067472): 6 iFPM
amp FC (x + 1) (VARS2 AB067472): 6.63
ave Cpd (VARS2 AB067472): 0 iFPM
FC (x + 1) (VARS2 AK000511): 1.1599 and 0.7407
L2abs (Cpd-DMSO) (VARS2 AK000511): 2.00 and 1.77
abs (Cpd-DMSO) (VARS2 AK000511): 4 iFPM and 3 iFPM
amp FC (x + 1) (VARS2 AK000511): 1.16 and 1.35
abs (Cpd-DMSO) (VARS2 AK094483): 2 iFPM and 3 iFPM
amp FC (x + 1) (VARS2 AK094483): 2.53 and 3.14
FC (x + 1) (VARS2 BC063427): 1.1095
L2FC (x + 1) (VARS2 BC063427): 0.150
L2abs (Cpd-DMSO) (VARS2 BC063427): 0.01
abs (Cpd-DMSO) (VARS2 BC063427): 1 iFPM
amp FC (x + 1) (VARS2 BC063427): 1.11
ave Cpd (VARS2 BC063427): 9 iFPM
ave Cpd (VARS2 BC143536): 0 iFPM
L2abs (Cpd-DMSO) (VARS2 NM_001167733): 3.61 and 2.65
abs (Cpd-DMSO) (VARS2 NM_001167733): 12 iFPM and 6 iFPM
FC (x + 1) (VARS2 NM_001167734): 0.0219
L2FC (x + 1) (VARS2 NM_001167734): −5.516
L2abs (Cpd-DMSO) (VARS2 NM_001167734): 5.48
abs (Cpd-DMSO) (VARS2 NM_001167734): 45 iFPM
amp FC (x + 1) (VARS2 NM_001167734): 45.77
ave Cpd (VARS2 NM_001167734): 0 iFPM
